Source: US20230009582A1
No constants are given. Whether binding was seen depends on the method and setting. Some binding calls cover weakened binding; strength is not graded here.

By UniProt entry, the sequences of proteins in these tests, tags left out. Where a name states a change or a piece, a line headed by the entry shows the natural chain unless it says otherwise.
UniProt Q9Y336: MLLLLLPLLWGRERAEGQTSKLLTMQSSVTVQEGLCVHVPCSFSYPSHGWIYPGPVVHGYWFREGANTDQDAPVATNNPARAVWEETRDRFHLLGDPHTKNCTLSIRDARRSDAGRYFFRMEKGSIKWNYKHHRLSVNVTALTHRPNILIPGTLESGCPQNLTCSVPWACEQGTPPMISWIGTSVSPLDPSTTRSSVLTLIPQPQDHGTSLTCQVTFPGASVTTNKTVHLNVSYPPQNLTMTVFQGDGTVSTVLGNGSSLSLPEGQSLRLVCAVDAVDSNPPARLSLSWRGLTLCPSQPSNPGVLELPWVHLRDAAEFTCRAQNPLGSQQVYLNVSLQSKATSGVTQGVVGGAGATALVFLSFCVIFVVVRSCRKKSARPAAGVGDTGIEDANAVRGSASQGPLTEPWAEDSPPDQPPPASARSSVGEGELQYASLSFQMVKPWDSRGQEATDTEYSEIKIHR

B1: monoclonal antibody 68D4 (rabbit) (antibody, V domains shown)
VH: QSLEESGGRLVKPDETLTITCTVSGIDLSSYDMTWVRQAPGKGLEWIGIIYTGGLTYYASWAKGRFTISKTSTTVDLKITSPTTEDTATYFCAREVGDNNNFWGPGTLVTVSS
VL: DVVMTQTPASVSEPVGGTVTIKCQASESVDSGLAWYHQKPGQPPKLLIYDDTDLASGVPSRFKGSRSGTAHTLTISDLECADAATYYCQYTDYGRTYVGTFGGGTEVVIKG
B2: monoclonal antibody 224B1 (rabbit) (antibody, V domains shown)
VH: QSVEESGGRLVTPETPLTLTCTASGFSLSSYYMSWVRQAPGKGLEWIGYIWTDGSAHYATWTKGRFTISKTSSTTVDLKITSPTTEDTATYFCVRANSGSHTYIEKFNLWGPGTLVTVSS
VL: DVVMTQTPASVEATVGGSVTIKCQASPSINDELSWYQQKPGQRPTLLIYEASALESGVPSRFKGSGSGTEFTLTIGDLECADAATYYCQCTYGSRSDISYGNTFGGGTEVVVKG
B3: comparative monoclonal antibody mAbA (WO 2017/153433), mouse-human chimera (antibody, human IgG1, kappa, V domains shown)
VH: QVQLQQPGAELVKPGSPVKLSCKASYFTFTSYWMHWVRQRPGQGLEWIGEINPSNGHTNYNEKFESKATLTVDRSSSTAYMQLSSLTSEDSAVFYCANGVESYDFDDALDYWGQGTSVTVSS
VL: DIQMTQTTSSLSASLGDRVTISCRASQDINNYLNWYQQKPDGTIKLLIYYTSRLHSGVPSRFSGSGSGTDYSLTINNLEQEDIATYFCQQGNTLPFTFGGGTKLEIKR
B4: comparative monoclonal antibody 5C6 (WO 2017/075432), mouse-rabbit chimera (antibody, V domains shown)
VH: EVQLQQSGPELVKPGASVRISCKASGYTFTDYNIHWVKQSQGKSLEWIGYIYPYNGDTGYNQKFQNKATLTVDNSSSTAYMELRSLTSEDSAVYYCANGNYLYYYAMDYWGQGTSVTVSS
VL: DVVMTQTPLSLPVSLGDQVSISCSSSQSLVHSNGNTYLHWYLQKSGQSPKLLIYKVSNRFSGVPDRFRGSGSGTDFTLKISRVEAEDLGVYFCSQNTHVPLTFGAGTKLELKG

Assays:
[1] = molecular target: Siglec-9 protein (construct not stated; antigen of Examples 3 and 4) (human) (UniProt Q9Y336); experiment: ELISA, Siglec-9 coated at 1 µg/ml, antibody titrated 0-420 nM
[2] = molecular target: Siglec-9 protein (construct not stated; antigen of Examples 3 and 4) (human) (UniProt Q9Y336); experiment: SPR (Carterra LSA), antibody coupled to HC2000M chip, antigen in solution

Binder | binding [1] | binding [2]
B1 | binds | binds
B2 | binds | binds
B3 | binds | –
B4 | binds | –
